Results reported in publication doi:10.1101/2021.03.30.437639.

Assays:
Experiment in all cases: co-IP
[1] = target: Rga6(ΔN3)-GFP (S. pombe)
[2] = target: Rga6(ΔN2)-GFP (S. pombe)
[3] = target: Rga6(ΔN1)-GFP (S. pombe)
[4] = target: Rga6(ΔPBR)-GFP (S. pombe)

B1: Spn1-tdTomato (protein, UniProt O36023 1-469)
chain: MASMVLADGMPTVKDDSTRSRGSDVDSFTSTDNVTQINVEAAISENKNEEKPIQDNSEQEFNPHVSIIQRQLNGYVGFASLPNQWHRRCVRQGFNFNVLVLGESGSGKSTLVNTLLNRDVYPPTQKSLTGDFGVNPEPTVMINSSAVEIVENGISLQLNVIDTPGFGDFIDNTDCWQPVLTDIEGRYDQYLELEKHNPRSTIQDPRVHACIFFIQPTGHAISAMELRVMLALHEKVNIIPIIAKADTLTDDELNFTKEMILRDIQYHNIRIFFPPTYETDDPESVAENADIMSRIPFAIIASNTFVVNNEGKRVRGRRYPWGVVEVDNEEHSDFPKLREMLIRTHLEELKEQTNKLYEAYRTERLLSSGISQDHSVFREVNPSAKLEEERALHEEKLMKMEAEMKTIFSQKVQEKEDRLKQSENELRTRHREMKAALEKQKADLIDHKNRLMQAKAAAENEKSKRKFFK
Q: Which binding [1] does the source give for B1 here?
A: binds

Q: And the binding [2]?
A: binds

Q: What about the binding [3] of the same binder?
A: binds

Q: What about the binding [4] of the same binder?
A: binds weakly

No constants are given. Whether binding was seen depends on the method and setting. Binding seen in cells or lysates may run through a third protein. A result given as binding can be weak or reduced; the word gives no strength.
